Results reported in PubChem BioAssay AID1347075 (National Center for Advancing Translational Sciences (NCATS), 2019).
Among all 400,000 compounds or so, about 5,500 (1.4%) were called active. The inconclusive results got no clear call from the source; some entries with a clear call stand among them for comparison. Calls come from the whole dose curve; as a rule, active = well fitted cell-killing curve with a large enough effect; inconclusive = small, poorly fitted or top-dose-only effect, or effect the other way; inactive = flat fitted curve, though single readings scatter. Potencies beside an inconclusive call are fits to weak or partial responses and may not hold up.
% is set by controls: 0 for no effect and ±100 for the full control effect; potency is the fitted concentration of half-maximal effect.

Assay: qHTS assay for MDR1-selective chemotherapeutics: Primary screen using the parental adenocarcinoma cell KB-3-1; note: nearly all actives have a fitted effect of over 60% in size
Conditions: KB-3-1 viability, CellTiter-Glo ATP luminescence, 72 h; activity change, negative = cytotoxic: at 46.1 µM (top of the series)
In short: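 Parental KB-3-1 adenocarcinoma cells in phenol-red-free DMEM with 10% FBS were pin-treated with compounds at several concentrations, incubated 72 h at 37 °C, and viability read by CellTiter-Glo luminescence; concentration-effect curves were fitted after normalization.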
With CCCCc1ccc(N/C(N)=N/c2nc(C)cc(C)n2)cc1 the Potency was inconclusive: 20.6 µM [cytotoxic, single point]. With COC(=O)C1=C(C)Nc2nnnn2C1c1cccnc1 (centres undefined) the Potency was “inactive”. In the case of C/C(=N\NC(=O)c1ccc(OC2CCCC2)cc1)c1ccc(O)cc1, the Potency is reported as active: 3.66 µM. In the case of O=C(c1nc2nc(-c3cccs3)cc(C(F)(F)F)n2n1)N1CCN(Cc2ccccc2)CC1, the Potency is reported as inconclusive: 23.1 µM [cytotoxic, partial curve]. With CN(C)c1ccccc1-c1cc(NC=O)c2ncc(-c3cccc(C(F)(F)F)c3)n2c1 the Potency was inconclusive: 29.1 µM [cytotoxic, single point]. For COc1ccc(C(=O)C2CCCN(S(=O)(=O)c3ccccc3F)C2)c(C)c1 (centres undefined), the activity change, negative = cytotoxic was inconclusive: 0%. In the case of O=C(C1CCCN(S(=O)(=O)c2cccc3nonc23)C1)N1CCC(Cc2ccccc2)CC1 (centres undefined), the Potency is reported as inconclusive: 29.1 µM [cytotoxic, single point]. With Nc1cccc2c1C(=O)N(C(=O)/C=C/c1cccc(F)c1)C2=O the Potency was inconclusive: 29.1 µM [cytotoxic, single point]. With COc1ccc(NC(=S)NC2CCCCCC2)c(OC)c1 the Potency was inconclusive: 32.6 µM [cytotoxic, single point]. For COc1ccc(S(=O)(=O)Nc2ccccc2C(=O)OC2CCCN(C)C2)cc1OC (centres undefined), the Potency was “inactive”. With O=C(c1cnc2ccc3ccccc3c2c1)c1cc(F)ccc1O the Potency was inconclusive: 23.1 µM [cytotoxic, single point]. In the case of C/C(=N\Nc1nc2ccc(Cl)cc2o1)c1ccccc1, the Potency is reported as “inactive”. With O=C(Nc1ccc(O)c(-c2nc3ccccc3o2)c1)C1(c2ccc(Cl)cc2)CCCC1 the Potency was inconclusive: 29.1 µM [cytotoxic, partial curve, poor fit]. For COc1ccc(CC(=O)Nc2ccc(S(=O)(=O)N3CCCC3)cc2)c(OC)c1, the Potency was inconclusive: 0.0651 µM [cytotoxic, full curve]. For CCNc1nc(NCC)nc(N/N=C/c2ccc([N+](=O)[O-])o2)n1, the Potency was inconclusive: 3.66 µM [rising, full curve, poor fit]. In the case of CCN(CC)S(=O)(=O)c1ccc(C)c(NC(=S)N2CCN(Cc3ccc4c(c3)OCO4)CC2)c1, the Potency is reported as active: 23.1 µM. In the case of O=C(Cc1ccccc1F)Nc1cccc(S(=O)(=O)N2CCOCC2)c1, the Potency is reported as “inactive”. For COc1cc(OC)c(/C=N/NC(=O)c2ccncc2)cc1Br, the Potency was inconclusive: 0.0052 µM [rising, full curve]. For C=CCn1c(=O)c2ccc(C(=O)NCc3ccccc3)cc2n(Cc2ccc(Cl)cc2)c1=O, the Potency was inconclusive: 29.1 µM [cytotoxic, single point]. For Cc1cc(NC(=O)c2ccc3c(c2)N(Cc2cccc(Cl)c2)C(=O)c2ccccc2S3(=O)=O)ccc1Br, the Potency was “inactive”. With O=C(CS(=O)(=O)c1cccc2nsnc12)N1CCN(c2ccccc2F)CC1 the Potency was “inactive”. For CCOC(=O)C1=C(C)N=c2s/c(=C\c3ccc(O)c([N+](=O)[O-])c3)c(=O)n2C1c1ccccc1OC (centres undefined), the Potency was inconclusive: 20.6 µM [cytotoxic, partial curve, poor fit]. For Cc1ccc(Cl)cc1N1CCN(Cc2nc3c(c(=O)[nH]c(=O)n3C)n2CCc2ccccc2)CC1, the Potency was inconclusive: 20.6 µM [cytotoxic, single point]. In the case of Clc1cc(Cl)cc(CN2CCSCC2)c1, the Potency is reported as “inactive”. In the case of O=C(Nc1nc(-c2cccs2)c(-c2cccs2)s1)C1CCCC1, the Potency is reported as inconclusive: 11.6 µM [cytotoxic, partial curve]. For Cc1ccccc1-c1nc(CN2CCC(C(=O)NCCCN3CC(C)CC(C)C3)CC2)c(C)o1 (centres undefined), the Potency was inconclusive: 35.5 µM [cytotoxic, single point]. In the case of CCn1c(=O)c(=O)n(CC)c2cc(S(=O)(=O)N3CCc4ccccc43)ccc21, the Potency is reported as active: 20.6 µM. In the case of CCOC(=O)c1c(NC(=O)c2cccs2)sc2c1CCCC2, the Potency is reported as “inactive”. For C(=N\Nc1nc2ccccc2[nH]1)/c1ccc2c(c1)OCCO2, the Potency was inconclusive: 29.1 µM [cytotoxic, single point]. With CCNc1nc(Oc2ccc(C#N)cc2)cc(C(F)(F)F)n1 the Potency was active: 18.4 µM. With COc1ccccc1-n1cc(CN2CCc3onc(-c4ccc(Br)cc4)c3C2=O)nn1 the Potency was “inactive”. With Cc1ccc(NC(=O)C2CCN(S(=O)(=O)c3ccc4c(c3)CC(C)N4C(=O)C3CCC3)CC2)nc1 (centres undefined) the Potency was inconclusive: 7.31 µM [cytotoxic, partial curve]. For C=CCn1c(NC(=O)c2ccccc2)nc2ccccc21, the Potency was inconclusive: 20.6 µM [cytotoxic, single point]. For O=C(c1cccc(N2C(=O)C3C4C=CC(C4)C3C2=O)c1)N1CCN(c2ccc(F)cc2)CC1 (centres undefined), the Potency was “inactive”. With O=[N+]([O-])c1ccc(N2CCN(c3ccc(F)cc3)CC2)cc1 the Potency was “inactive”. In the case of CN(C)CCC(C(=O)c1ccccc1)c1ccncc1 (centres undefined), the Potency is reported as inconclusive: 5.8 µM [rising, partial curve]. In the case of O=Cc1c[nH]c2ccc(NC(=O)OCc3ccccc3)cc12, the Potency is reported as inconclusive: 29.1 µM [cytotoxic, single point]. For Cc1ccc(NS(=O)(=O)c2cc3c(cc2C)NC(=O)CO3)cc1, the Potency was inconclusive: 29.1 µM [cytotoxic, single point]. For CC(Nc1nc(-c2ccc(F)cc2)cs1)c1nc2cc(C(F)(F)F)ccc2n1CCCO (centres undefined), the Potency was inconclusive: 23.1 µM [cytotoxic, single point]. With COCCNc1nc2c(c(=O)n(C)c(=O)n2C)n1Cc1c(F)cccc1Cl the Potency was inconclusive: 29.1 µM [cytotoxic, single point]. In the case of COc1ccc(N(CC(=O)Nc2cc(C)cc(C)c2)S(=O)(=O)c2ccccc2[N+](=O)[O-])c(OC)c1, the Potency is reported as “inactive”. For CCOc1ccc(NC(=O)CCC(=O)N/N=C/c2ccc([N+](=O)[O-])s2)cc1, the Potency was inconclusive: 23.1 µM [rising, partial curve]. With COc1cccc(CN(C)CC2CCCN(CCc3ccc(Cl)cc3)C2)c1OC (centres undefined) the Potency was inconclusive: 29.1 µM [cytotoxic, single point]. For CC1CCCC(C)N1C(=O)COC(=O)c1ccc(S(=O)(=O)N(C)c2ccccc2)cc1 (centres undefined), the Potency was inconclusive: 25.9 µM [rising, single point].
